The values are deposited in ChEMBL (CHEMBL3988442, “University of Dundee, Small-Polar-MMV Screening Library” (2021)).

Sequences of proteins named here, by UniProt entry; tags and fusion partners are left off.
UniProt E9BF75, entry or part of it: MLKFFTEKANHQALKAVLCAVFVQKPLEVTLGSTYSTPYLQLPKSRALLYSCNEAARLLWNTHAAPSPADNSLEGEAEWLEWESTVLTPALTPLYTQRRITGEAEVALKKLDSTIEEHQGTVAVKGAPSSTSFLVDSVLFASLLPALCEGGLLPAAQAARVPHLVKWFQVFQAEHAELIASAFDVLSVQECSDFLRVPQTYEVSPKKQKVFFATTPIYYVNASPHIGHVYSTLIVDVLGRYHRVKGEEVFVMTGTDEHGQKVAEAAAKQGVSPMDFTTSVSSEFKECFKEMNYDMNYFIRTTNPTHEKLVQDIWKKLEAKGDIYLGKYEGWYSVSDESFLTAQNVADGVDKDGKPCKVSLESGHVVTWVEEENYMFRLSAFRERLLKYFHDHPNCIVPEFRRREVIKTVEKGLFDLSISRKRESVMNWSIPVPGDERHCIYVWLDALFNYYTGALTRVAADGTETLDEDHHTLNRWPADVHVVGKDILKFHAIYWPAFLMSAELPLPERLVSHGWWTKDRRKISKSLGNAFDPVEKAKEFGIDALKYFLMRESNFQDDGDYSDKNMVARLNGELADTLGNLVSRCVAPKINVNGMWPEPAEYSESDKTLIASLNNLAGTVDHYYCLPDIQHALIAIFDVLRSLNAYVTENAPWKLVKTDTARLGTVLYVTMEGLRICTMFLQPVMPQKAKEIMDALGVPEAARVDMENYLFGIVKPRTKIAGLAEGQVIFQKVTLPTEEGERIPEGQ

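Primary screen of methionyl-tRNA synthetase; the read-out is not stated. Target: Methionyl-tRNA synthetase (putative), Leishmania donovani (UniProt E9BF75). The test concentration is not given. The values are filed as inhibition. About 68,000 compounds were tested under these conditions; 0.035% (about 24) showed 50% or more at least once.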

All values are in %. The record does not define 0% and 100%; most values in the screen are far below 50% and negative numbers occur (in some assays of this library far below -100). This is an unselected part of the compounds tested.

For CCC[C@H]1CN(S(=O)(=O)c2cc(C)ccc2F)C[C@@H]1N the result was 18.18%. With c1cc(-c2c[nH]c([C@@H]3COCCN3Cc3csnn3)n2)ccn1 the screen gave 7.519%. With CCC1CN(C(=O)c2[nH]nc(C)c2Br)CCO1 (centres unmarked) the screen gave 8.397%. With O=S(=O)(c1ccccc1)N1C(CN2CCOCC2)[C@]2(O)CC[C@H]1CC2 (some centres unmarked) the screen gave 3.562%. CCC(C(=O)Nc1ccc(-c2nc(C)n[nH]2)cc1)N1CCCC1=O (centres unmarked) gave 17.27%. Result for CCn1cc(CN2CCCN(C3Cc4ccccc4C3)CC2)cn1 was 27.44%.

For COCCNCC1(O)CCCN(Cc2ccc(F)c(F)c2)C1=O (centres unmarked) the result was 17.17%. Cc1cc(Cl)ccc1NCc1cnn(C2CCS(=O)(=O)C2)c1 (centres unmarked) read 15.25%. Result for CN(C)Cc1cc(CC2(NCc3ccccc3Cl)COC2)no1 was 10.51%. CNC(=O)C1CCN(Cc2nc(-c3ccc(SC)cc3)oc2C)C1 (centres unmarked) gave 10.44%. Cc1nc2ccccc2n1Cc1cc(C(=O)N2C[C@@H](C)O[C@@H](C)C2)no1 gave 7.904%. Result for CCCN(C)C(=O)Nc1ccc(C(=O)NCCC(=O)OC)cc1 was -2.41%.

Result for CC(=O)c1cccc(NC(=O)CN2CCCCC2C(=O)N2CCCC2)c1 (centres unmarked) was 16.48%. COc1cc(N2CC[C@H](O)[C@@H]2Cc2cccnc2)ncn1 gave 6.667%. For Cc1ccc(OCC2CCCN(CC3CCOCC3)C2)cc1 (centres unmarked) the result was 7.186%. With Cc1ccc(C(=O)N2CCN(Cc3cccs3)CC2)c(=O)[nH]1 the screen gave 13.72%. With Cn1c(CCN2CCN(CCc3ccccc3)CC2)nc2ccccc21 the screen gave 6.97%. For Cc1cccc(-c2noc(CN3CC(n4cc(C)cn4)C3)n2)c1 the result was 13.36%.

With CC(C)c1nnc(CN(C)Cc2ccccc2-c2ccccc2)o1 the screen gave 16.32%. With Cc1cc(C2CCCN2Cc2cc(-c3ccco3)on2)on1 (centres unmarked) the screen gave 3.106%. With O=C(NCc1nnnn1-c1ccccc1)c1ccc(C2CCCO2)s1 (centres unmarked) the screen gave 16.51%. CCSc1cc(C(=O)NCCNC(=O)N(C)C)ccn1 read 20.36%. With O=C1OC2(CCN(C(=O)C3NCCc4[nH]cnc43)CC2)c2ccccc21 (centres unmarked) the screen gave 6.138%. For COc1ccc(CCN)cc1-c1ccc(S(C)(=O)=O)cc1 the result was 2.419%.

For Cn1cc(CN2CCCN(C(=O)c3ccccn3)CC2)cn1 the result was 13.22%. For Cc1cc(CN(Cc2ccccc2)C2CC2)on1 the result was 10.67%. Result for COCC1COCCC12CCN(C(=O)CC1=CCCCC1)CC2 (centres unmarked) was 18.48%. For N#Cc1ncn(CC(=O)Nc2cc(Cl)ccc2F)n1 the result was 15.5%. CCOc1ccc(C#N)cc1NCC(=O)Nc1cc(C)no1 read 8.92%. Result for O=C(NCc1nncn1-c1ccccc1)C1CCCCC1 was 16.87%.

With COc1ccccc1OCC(=O)n1ncc(C#N)c1N the screen gave 4.735%. For CN(C(=O)Cn1nc(-c2ccc(F)cc2)oc1=O)c1ccccc1 the result was 9.51%. Result for CN(C)Cc1cc(=O)n2c(n1)CN(C(=O)c1ccc[nH]1)CCC2 was 4.692%. COC(=O)[C@H](CCSC)NC(=O)Cn1ccc2c(Cl)cccc21 gave 14.85%. CC(C)N1CCCC(C(=O)N2CCN(c3nsc4ccccc34)CC2)C1 (centres unmarked) read 10.7%. For COc1ccccc1CNc1c(O)c(=O)c1=O the result was 8.746%.

Result for CCNC(=O)C1(Cc2cc(-c3ccccc3)no2)CCCN(C(C)C)C1 (centres unmarked) was 17.46%. With CN(Cc1cnn(C)c1)C(=O)c1cc(C(F)(F)F)n(C)n1 the screen gave 11.33%. CN1CC(=O)N(c2ccccc2)CC12CCN(C(=O)c1cccs1)C2 (centres unmarked) read 4%. Result for Cc1cnn(CC2CCCCN2C(=O)Cc2ccc(C#N)cc2)c1 (centres unmarked) was 12.32%.

Once more, the final 2:

SMILES	inhibition
CN1CC(=O)N(c2ccccc2)CC12CCN(C(=O)c1cccs1)C2 (centres unmarked)	4%
Cc1cnn(CC2CCCCN2C(=O)Cc2ccc(C#N)cc2)c1 (centres unmarked)	12.32%